Here are results for 4 targets from the supplement of paper PMC12819154, “High-throughput peptide-centric local stability assay extends protein–ligand identification to membrane proteins, tissues and bacteria” (Nature Structural & Molecular Biology, 2025).

Sequences of proteins named here, by UniProt entry; tags and fusion partners are left off. A change or cut given only in a name is not applied to a line headed by its entry.
UniProt P0A6B4, whole entry: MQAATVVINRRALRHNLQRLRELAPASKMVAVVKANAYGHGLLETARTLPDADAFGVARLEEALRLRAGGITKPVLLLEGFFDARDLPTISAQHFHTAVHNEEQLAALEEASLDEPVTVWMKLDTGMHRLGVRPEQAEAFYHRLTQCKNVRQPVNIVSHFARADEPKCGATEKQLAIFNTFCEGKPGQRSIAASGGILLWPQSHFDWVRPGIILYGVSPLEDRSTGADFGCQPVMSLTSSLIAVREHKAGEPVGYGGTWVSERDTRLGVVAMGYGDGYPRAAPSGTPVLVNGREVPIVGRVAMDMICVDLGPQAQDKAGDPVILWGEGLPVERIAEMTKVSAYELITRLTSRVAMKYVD
UniProt P06988: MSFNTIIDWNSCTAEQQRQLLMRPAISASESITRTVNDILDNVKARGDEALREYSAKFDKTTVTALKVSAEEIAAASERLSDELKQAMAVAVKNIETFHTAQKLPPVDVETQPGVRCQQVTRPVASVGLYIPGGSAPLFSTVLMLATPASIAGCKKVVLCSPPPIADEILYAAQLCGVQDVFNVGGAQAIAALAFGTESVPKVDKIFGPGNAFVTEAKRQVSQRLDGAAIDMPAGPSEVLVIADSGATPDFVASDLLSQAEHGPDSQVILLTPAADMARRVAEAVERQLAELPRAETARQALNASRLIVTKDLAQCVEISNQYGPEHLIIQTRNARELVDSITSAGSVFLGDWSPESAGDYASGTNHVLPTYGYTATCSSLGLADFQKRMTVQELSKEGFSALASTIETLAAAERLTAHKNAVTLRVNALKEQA
UniProt P06965: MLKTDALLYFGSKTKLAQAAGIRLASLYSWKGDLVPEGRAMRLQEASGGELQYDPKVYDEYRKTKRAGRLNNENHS
UniProt P03024: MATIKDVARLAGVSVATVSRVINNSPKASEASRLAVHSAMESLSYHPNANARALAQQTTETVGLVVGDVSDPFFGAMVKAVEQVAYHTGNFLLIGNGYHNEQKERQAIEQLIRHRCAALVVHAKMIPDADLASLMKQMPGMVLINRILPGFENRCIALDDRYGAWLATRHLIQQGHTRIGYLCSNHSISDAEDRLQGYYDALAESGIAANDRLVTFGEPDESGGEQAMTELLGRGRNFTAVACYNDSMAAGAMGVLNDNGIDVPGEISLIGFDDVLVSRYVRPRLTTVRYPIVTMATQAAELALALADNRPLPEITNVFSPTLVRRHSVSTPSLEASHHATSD

The list shows a part of the results. Most values lie at the level of the controls, where differences are scatter.

Compound in this assay: CC1(C)S[C@@H]2[C@H](NC(=O)[C@H](N)c3ccccc3)C(=O)N2[C@H]1C(=O)O [ampicillin]
The experiment in a line: log2 fold change of tryptic peptide abundance, ligand vs vehicle (limited proteolysis) (log2 ratio); higher = more trypsin-susceptible (destabilized). The settings on record: ligand concentration: 10 uM; sample: E. coli crude lysate.
Turning to “UniProt P0A6B4 (peptide sequence: LGVRPEQAEAFYHR, peptide start residue: 130)”, the log2 fold change was -0.321.
On to “UniProt P06988 (peptide sequence: VNALKEQA, peptide start residue: 427)”, for which the log2 fold change is -0.217.
Turning to “UniProt P06965 (peptide sequence: LASLYSWK, peptide start residue: 24)”, the log2 fold change was -0.434.
To “UniProt P03024 (peptide sequence: ILPGFENR, peptide start residue: 147)” belongs -0.0781.
